Experimental data reported in paper PMC11623952.
No constants are given. Whether binding was seen depends on the method and setting. In cells and extracts the contact can be indirect. A yes stands for co-enrichment or nearness to the bait. Other partners may have been found. Blank lines part the entries; values can stand above or below the molecule they belong to.

Sequences of proteins named here, by UniProt entry; tags and fusion partners are left off. Residues count along the entry.
UniProt Q13418: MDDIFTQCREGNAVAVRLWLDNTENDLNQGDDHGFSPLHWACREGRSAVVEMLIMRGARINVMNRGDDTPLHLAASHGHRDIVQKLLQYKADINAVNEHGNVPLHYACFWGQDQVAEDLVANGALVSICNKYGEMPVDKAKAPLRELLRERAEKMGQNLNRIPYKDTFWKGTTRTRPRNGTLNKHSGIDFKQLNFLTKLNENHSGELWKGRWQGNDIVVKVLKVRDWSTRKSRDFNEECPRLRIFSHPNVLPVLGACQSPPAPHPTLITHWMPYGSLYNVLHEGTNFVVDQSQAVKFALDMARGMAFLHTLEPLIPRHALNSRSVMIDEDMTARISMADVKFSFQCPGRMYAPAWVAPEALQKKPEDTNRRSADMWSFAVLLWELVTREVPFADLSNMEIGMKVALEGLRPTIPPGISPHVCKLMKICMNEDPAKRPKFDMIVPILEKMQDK
UniProt Q14008: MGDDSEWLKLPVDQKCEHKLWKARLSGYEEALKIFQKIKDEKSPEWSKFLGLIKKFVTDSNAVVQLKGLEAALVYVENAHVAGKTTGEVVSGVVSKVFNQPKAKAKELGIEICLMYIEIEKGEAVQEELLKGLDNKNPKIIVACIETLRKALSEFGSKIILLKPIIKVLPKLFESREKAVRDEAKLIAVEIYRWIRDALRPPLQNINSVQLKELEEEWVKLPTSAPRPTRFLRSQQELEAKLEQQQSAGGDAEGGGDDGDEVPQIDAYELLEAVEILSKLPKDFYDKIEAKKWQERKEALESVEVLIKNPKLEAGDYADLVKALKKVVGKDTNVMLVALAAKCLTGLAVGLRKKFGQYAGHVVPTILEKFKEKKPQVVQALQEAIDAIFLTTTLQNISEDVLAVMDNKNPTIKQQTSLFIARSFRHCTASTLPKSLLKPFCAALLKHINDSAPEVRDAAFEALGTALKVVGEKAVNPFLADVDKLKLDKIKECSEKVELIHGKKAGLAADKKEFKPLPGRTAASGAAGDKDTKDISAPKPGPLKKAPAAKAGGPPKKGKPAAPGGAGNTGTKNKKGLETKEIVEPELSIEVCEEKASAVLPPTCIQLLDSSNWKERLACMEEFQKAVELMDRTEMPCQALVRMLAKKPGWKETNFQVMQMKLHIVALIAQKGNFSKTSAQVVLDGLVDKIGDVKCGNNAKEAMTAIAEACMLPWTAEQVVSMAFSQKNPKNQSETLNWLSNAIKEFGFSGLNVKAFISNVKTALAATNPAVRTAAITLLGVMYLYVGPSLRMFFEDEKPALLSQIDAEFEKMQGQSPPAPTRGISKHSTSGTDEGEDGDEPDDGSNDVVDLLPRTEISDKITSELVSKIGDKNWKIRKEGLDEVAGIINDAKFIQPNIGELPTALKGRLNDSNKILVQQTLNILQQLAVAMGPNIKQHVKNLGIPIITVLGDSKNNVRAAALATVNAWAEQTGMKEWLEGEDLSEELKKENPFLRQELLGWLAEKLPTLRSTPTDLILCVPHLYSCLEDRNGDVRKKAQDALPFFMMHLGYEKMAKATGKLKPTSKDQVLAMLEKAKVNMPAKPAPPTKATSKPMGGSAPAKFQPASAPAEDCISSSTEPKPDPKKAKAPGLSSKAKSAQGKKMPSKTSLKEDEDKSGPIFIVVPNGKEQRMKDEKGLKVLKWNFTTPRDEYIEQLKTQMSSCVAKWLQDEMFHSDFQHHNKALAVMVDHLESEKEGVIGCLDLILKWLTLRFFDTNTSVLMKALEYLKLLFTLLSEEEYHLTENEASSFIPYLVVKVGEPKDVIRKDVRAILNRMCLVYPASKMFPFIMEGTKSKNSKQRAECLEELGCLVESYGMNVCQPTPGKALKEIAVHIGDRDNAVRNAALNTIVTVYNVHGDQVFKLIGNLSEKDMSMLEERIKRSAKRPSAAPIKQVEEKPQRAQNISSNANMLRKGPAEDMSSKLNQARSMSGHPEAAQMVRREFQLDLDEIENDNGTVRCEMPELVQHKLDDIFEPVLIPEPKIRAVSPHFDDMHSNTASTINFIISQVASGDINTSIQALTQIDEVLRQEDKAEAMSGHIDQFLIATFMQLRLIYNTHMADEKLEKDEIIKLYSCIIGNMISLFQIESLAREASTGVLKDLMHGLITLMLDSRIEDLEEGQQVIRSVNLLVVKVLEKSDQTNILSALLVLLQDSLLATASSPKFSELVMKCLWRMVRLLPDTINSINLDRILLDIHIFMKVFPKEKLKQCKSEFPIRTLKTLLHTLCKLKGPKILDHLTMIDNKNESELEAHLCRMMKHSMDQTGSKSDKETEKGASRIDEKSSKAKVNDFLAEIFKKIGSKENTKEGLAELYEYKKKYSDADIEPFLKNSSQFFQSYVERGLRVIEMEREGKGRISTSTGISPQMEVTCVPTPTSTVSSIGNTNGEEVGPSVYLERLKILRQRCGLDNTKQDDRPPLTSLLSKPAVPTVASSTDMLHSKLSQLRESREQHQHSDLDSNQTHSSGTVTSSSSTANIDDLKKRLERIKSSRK
UniProt Q16643: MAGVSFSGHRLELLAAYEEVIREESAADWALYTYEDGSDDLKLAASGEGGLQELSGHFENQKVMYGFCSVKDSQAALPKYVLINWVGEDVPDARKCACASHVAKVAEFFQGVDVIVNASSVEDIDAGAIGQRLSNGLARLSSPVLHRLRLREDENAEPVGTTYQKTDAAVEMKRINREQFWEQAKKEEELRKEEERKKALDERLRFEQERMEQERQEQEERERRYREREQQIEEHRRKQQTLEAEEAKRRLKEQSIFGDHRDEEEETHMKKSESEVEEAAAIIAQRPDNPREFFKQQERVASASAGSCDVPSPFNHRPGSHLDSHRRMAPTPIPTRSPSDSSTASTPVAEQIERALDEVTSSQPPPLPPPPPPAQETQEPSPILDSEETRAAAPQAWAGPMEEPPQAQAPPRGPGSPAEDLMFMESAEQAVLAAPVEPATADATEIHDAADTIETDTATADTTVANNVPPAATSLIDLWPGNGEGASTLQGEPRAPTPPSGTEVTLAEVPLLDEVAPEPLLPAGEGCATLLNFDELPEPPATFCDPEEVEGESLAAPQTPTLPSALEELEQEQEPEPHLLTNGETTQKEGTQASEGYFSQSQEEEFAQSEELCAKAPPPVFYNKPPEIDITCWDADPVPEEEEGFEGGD
UniProt P29279, residues 27-349: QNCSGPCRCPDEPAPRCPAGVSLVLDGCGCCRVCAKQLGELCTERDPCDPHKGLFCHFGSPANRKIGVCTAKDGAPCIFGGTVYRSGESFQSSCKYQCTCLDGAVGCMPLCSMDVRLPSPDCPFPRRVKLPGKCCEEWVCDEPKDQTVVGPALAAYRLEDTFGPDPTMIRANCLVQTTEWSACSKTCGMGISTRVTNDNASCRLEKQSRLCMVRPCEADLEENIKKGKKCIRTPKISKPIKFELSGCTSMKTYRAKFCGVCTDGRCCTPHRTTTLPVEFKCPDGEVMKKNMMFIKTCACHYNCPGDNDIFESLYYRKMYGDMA
UniProt O43707: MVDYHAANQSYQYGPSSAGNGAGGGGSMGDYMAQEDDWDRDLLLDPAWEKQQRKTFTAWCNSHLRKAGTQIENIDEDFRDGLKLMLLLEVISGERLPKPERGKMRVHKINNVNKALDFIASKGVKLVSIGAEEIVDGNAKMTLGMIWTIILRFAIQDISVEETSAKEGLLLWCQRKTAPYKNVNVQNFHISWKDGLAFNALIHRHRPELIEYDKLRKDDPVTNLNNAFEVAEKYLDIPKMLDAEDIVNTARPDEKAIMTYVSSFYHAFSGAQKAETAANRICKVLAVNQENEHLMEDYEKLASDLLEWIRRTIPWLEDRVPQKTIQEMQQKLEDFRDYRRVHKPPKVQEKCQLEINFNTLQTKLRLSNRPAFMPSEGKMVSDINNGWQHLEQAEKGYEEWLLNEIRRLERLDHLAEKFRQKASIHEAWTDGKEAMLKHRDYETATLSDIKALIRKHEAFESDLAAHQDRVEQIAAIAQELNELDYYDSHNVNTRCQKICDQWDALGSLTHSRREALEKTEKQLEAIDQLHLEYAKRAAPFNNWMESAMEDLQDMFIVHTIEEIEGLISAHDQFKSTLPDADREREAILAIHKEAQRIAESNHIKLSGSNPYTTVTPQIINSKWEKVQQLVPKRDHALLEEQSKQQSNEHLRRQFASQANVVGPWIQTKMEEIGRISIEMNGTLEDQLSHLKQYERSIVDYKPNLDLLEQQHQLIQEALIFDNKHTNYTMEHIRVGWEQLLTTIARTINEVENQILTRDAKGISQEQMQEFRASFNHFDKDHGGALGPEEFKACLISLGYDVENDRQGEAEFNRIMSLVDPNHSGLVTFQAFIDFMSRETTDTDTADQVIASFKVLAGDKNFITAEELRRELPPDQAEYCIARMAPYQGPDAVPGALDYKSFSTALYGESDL
UniProt P35580: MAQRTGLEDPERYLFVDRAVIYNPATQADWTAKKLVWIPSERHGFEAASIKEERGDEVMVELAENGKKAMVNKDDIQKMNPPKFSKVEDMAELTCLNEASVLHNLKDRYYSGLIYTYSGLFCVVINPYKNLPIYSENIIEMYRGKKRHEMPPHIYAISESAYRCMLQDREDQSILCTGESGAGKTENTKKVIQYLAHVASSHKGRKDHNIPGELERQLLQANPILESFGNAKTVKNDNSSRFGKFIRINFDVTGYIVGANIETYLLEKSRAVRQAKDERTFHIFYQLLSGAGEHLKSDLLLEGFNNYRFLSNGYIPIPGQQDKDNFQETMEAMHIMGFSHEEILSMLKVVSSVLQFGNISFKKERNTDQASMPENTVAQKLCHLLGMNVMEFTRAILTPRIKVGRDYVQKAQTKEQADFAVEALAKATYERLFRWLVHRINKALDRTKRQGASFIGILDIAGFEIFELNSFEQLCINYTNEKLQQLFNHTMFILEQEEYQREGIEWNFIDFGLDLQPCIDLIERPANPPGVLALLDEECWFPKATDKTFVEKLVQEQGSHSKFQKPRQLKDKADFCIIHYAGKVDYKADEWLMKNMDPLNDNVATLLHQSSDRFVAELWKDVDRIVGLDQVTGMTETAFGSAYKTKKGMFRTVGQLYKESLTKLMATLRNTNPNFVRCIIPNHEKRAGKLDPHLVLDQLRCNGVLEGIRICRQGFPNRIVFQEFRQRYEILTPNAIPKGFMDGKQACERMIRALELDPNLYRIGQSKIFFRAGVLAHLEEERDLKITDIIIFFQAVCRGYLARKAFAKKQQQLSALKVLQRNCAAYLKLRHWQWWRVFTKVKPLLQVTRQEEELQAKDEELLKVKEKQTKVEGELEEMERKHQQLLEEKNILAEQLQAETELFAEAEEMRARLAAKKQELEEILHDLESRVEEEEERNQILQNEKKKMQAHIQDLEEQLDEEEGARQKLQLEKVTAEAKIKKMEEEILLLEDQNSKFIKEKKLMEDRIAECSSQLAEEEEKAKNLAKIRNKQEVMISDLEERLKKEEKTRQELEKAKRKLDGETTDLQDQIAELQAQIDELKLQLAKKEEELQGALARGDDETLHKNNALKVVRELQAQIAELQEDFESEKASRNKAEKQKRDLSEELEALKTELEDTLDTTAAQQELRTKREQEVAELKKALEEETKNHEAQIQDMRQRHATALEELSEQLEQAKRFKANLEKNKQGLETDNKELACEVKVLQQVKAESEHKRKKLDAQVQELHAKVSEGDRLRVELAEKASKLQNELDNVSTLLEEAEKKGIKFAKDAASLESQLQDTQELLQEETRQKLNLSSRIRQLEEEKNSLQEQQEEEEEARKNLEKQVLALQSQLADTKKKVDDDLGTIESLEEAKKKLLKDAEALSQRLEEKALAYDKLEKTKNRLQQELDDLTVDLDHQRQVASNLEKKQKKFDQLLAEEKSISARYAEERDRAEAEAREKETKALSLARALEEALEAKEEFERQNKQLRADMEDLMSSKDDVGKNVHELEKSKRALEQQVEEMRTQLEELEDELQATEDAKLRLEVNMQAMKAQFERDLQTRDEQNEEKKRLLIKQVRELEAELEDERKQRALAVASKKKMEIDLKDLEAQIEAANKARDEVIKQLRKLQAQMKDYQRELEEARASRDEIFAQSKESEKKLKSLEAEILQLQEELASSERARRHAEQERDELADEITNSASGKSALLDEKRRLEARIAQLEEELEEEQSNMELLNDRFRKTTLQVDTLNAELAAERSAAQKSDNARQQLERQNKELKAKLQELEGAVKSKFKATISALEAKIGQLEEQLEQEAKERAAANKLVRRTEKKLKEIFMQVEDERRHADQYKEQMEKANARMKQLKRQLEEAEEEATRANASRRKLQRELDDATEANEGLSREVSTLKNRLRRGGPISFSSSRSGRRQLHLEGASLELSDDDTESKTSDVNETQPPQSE

Target: T1, septin-9 (human (endogenous in TM cells)) (UniProt Q9UHD8)
T1 sequence: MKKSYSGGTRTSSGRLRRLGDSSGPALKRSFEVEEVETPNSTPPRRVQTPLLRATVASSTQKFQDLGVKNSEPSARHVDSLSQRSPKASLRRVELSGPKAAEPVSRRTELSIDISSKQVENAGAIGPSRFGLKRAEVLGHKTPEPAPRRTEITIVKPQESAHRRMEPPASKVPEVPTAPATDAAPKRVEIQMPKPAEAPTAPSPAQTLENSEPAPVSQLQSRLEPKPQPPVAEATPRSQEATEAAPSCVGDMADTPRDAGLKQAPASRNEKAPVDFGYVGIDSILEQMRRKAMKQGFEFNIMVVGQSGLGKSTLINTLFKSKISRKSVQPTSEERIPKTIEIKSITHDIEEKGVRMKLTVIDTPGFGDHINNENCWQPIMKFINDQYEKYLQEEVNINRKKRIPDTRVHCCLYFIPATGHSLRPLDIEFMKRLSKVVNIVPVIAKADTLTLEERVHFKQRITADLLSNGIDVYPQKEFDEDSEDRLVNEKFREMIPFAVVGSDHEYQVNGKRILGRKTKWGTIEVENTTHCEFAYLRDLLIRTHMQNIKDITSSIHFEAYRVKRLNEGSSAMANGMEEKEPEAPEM
Assay: affinity purification with mass spectrometry; immunoprecipitation with an anti-SEPT9 polyclonal antibody on Dynabeads Protein A from human TM cell lysates (2 strains), IgG control; tryptic digests read by LC-MS (Q Exactive HF Orbitrap)

binding: binds
Molecule: integrin-linked protein kinase (from UniProt Q13418 1-452)

binding: binds
Molecule: cytoskeleton-associated protein 5 (from UniProt Q14008 1-2032)

binding: binds
Molecule: inverted formin-2 (from UniProt Q27J81 1-1249)

binding: binds
Molecule: microtubule-actin cross-linking factor 1 (from UniProt Q9UPN3 1-7388)

binding: binds
Molecule: FERM2 (from UniProt Q96AC1 1-680)

binding: binds
Molecule: drebrin (from UniProt Q16643 1-649)

binding: binds
Molecule: LIM domain and actin-binding protein 1 (from UniProt Q9UHB6 1-759)

binding: binds
Molecule: synaptojanin-1 (from UniProt O43426 1-1573)

binding: binds
Molecule: cytoplasmic FMR1-interacting protein (human (endogenous in TM cells))

binding: binds
B6: palladin (protein, UniProt Q8WX93 1-1383)
chain: MSGTSSHESFYDSLSDMQEESKNTDFFPGLSAFLSQEEINKSLDLARRAIADSETEDFDSEKEISQIFSTSPASLCEHPSHKETKLGEHASRRPQDNRSTPVQPLAEKQTKSISSPVSKRKPAMSPLLTRPSYIRSLRKAEKRGAKTPSTNVKPKTPHQRKGGPQSQLCDKAANLIEELTSIFKAAKPRNRSPNGESSSPDSGYLSPKNQPSALLSASASQSPMEDQGEMEREVKSPGARHCYQDNQDLAVPHNRKSHPQPHSALHFPAAPRFIQKLRSQEVAEGSRVYLECRVTGNPTPRVRWFCEGKELHNTPDIQIHCEGGDLHTLIIAEAFEDDTGRYTCLATNPSGSDTTSAEVFIEGASSTDSDSESLAFKSRAGAMPQAQKKTTSVSLTIGSSSPKTGVTTAVIQPLSVPVQQVHSPTSYLCRPDGTTTAYFPPVFTKELQNTAVAEGQVVVLECRVRGAPPLQVQWFRQGSEIQDSPDFRILQKKPRSTAEPEEICTLVIAETFPEDAGIFTCSARNDYGSATSTAQLVVTSANTENCSYESMGESNNDHFQHFPPPPPILETSSLELASKKPSEIQQVNNPELGLSRAALQMQFNAAERETNGVHPSRGVNGLINGKANSNKSLPTPAVLLSPTKEPPPLLAKPKLDPLKLQQLQNQIRLEQEAGARQPPPAPRSAPPSPPFPPPPAFPELAACTPPASPEPMSALASRSAPAMQSSGSFNYARPKQFIAAQNLGPASGHGTPASSPSSSSLPSPMSPTPRQFGRAPVPPFAQPFGAEPEAPWGSSSPSPPPPPPPVFSPTAAFPVPDVFPLPPPPPPLPSPGQASHCSSPATRFGHSQTPAAFLSALLPSQPPPAAVNALGLPKGVTPAGFPKKASRTARIASDEEIQGTKDAVIQDLERKLRFKEDLLNNGQPRLTYEERMARRLLGADSATVFNIQEPEEETANQEYKVSSCEQRLISEIEYRLERSPVDESGDEVQYGDVPVENGMAPFFEMKLKHYKIFEGMPVTFTCRVAGNPKPKIYWFKDGKQISPKSDHYTIQRDLDGTCSLHTTASTLDDDGNYTIMAANPQGRISCTGRLMVQAVNQRGRSPRSPSGHPHVRRPRSRSRDSGDENEPIQERFFRPHFLQAPGDLTVQEGKLCRMDCKVSGLPTPDLSWQLDGKPVRPDSAHKMLVRENGVHSLIIEPVTSRDAGIYTCIATNRAGQNSFSLELVVAAKEAHKPPVFIEKLQNTGVADGYPVRLECRVLGVPPPQIFWKKENESLTHSTDRVSMHQDNHGYICLLIQGATKEDAGWYTVSAKNEAGIVSCTARLDVYTQWHQQSQSTKPKKVRPSASRYAALSDQGLDIKAAFQPEANPSHLTLNTALVESEDL

Second part, the molecule before the results:

Molecule: CCN family member 2 (from UniProt P29279 27-349)
binding: binds

Molecule: latent TGF-β-binding protein 2 (from UniProt Q14767 36-1821)
binding: binds

Molecule: α-actinin 4 (from UniProt O43707 1-911)
binding: binds

Molecule: EMILIN-1 (from UniProt Q9Y6C2 22-1016)
binding: binds

Molecule: myosin-10 (from UniProt P35580 1-1976)
binding: binds

B1: SEPT10 (protein, UniProt Q9P0V9 1-454)
chain: MASSEVARHLLFQSHMATKTTCMSSQGSDDEQIKRENIRSLTMSGHVGFESLPDQLVNRSIQQGFCFNILCVGETGIGKSTLIDTLFNTNFEDYESSHFCPNVKLKAQTYELQESNVQLKLTIVNTVGFGDQINKEESYQPIVDYIDAQFEAYLQEELKIKRSLFTYHDSRIHVCLYFISPTGHSLKTLDLLTMKNLDSKVNIIPVIAKADTVSKTELQKFKIKLMSELVSNGVQIYQFPTDDDTIAKVNAAMNGQLPFAVVGSMDEVKVGNKMVKARQYPWGVVQVENENHCDFVKLREMLICTNMEDLREQTHTRHYELYRRCKLEEMGFTDVGPENKPVSVQETYEAKRHEFHGERQRKEEEMKQMFVQRVKEKEAILKEAERELQAKFEHLKRLHQEERMKLEEKRRLLEEEIIAFSKKKATSEIFHSQSFLATGSNLRKDKDRKNSNFL
binding: binds

B2: CD59 (protein, UniProt P13987 26-102)
chain: LQCYNCPNPTADCKTAVNCSSDFDACLITKAGLQVYNKCWKFEHCNFNDVTTRLRENELTYYCCKKDLCNFNEQLEN
binding: binds

B3: SEPT11 (protein, UniProt Q9NVA2 1-429)
chain: MAVAVGRPSNEELRNLSLSGHVGFDSLPDQLVNKSTSQGFCFNILCVGETGIGKSTLMDTLFNTKFESDPATHNEPGVRLKARSYELQESNVRLKLTIVDTVGFGDQINKDDSYKPIVEYIDAQFEAYLQEELKIKRSLFNYHDTRIHACLYFIAPTGHSLKSLDLVTMKKLDSKVNIIPIIAKADTIAKNELHKFKSKIMSELVSNGVQIYQFPTDEETVAEINATMSVHLPFAVVGSTEEVKIGNKMAKARQYPWGVVQVENENHCDFVKLREMLIRVNMEDLREQTHTRHYELYRRCKLEEMGFKDTDPDSKPFSLQETYEAKRNEFLGELQKKEEEMRQMFVMRVKEKEAELKEAEKELHEKFDLLKRTHQEEKKKVEDKKKELEEEVNNFQKKKAAAQLLQSQAQQSGAQQTKKDKDKKNASFT
binding: binds

B4: phostensin (protein, UniProt Q6NYC8 1-613)
chain: MATIPDWKLQLLARRRQEEASVRGREKAERERLSQMPAWKRGLLERRRAKLGLSPGEPSPVLGTVEAGPPDPDESAVLLEAIGPVHQNRFIRQERQQQQQQQQRSEELLAERKPGPLEARERRPSPGEMRDQSPKGRESREERLSPRETRERRLGIGGAQELSLRPLEARDWRQSPGEVGDRSSRLSEAWKWRLSPGETPERSLRLAESREQSPRRKEVESRLSPGESAYQKLGLTEAHKWRPDSRESQEQSLVQLEATEWRLRSGEERQDYSEECGRKEEWPVPGVAPKETAELSETLTREAQGNSSAGVEAAEQRPVEDGERGMKPTEGWKWTLNSGKAREWTPRDIEAQTQKPEPPESAEKLLESPGVEAGEGEAEKEEAGAQGRPLRALQNCCSVPSPLPPEDAGTGGLRQQEEEAVELQPPPPAPLSPPPPAPTAPQPPGDPLMSRLFYGVKAGPGVGAPRRSGHTFTVNPRRSVPPATPATPTSPATVDAAVPGAGKKRYPTAEEILVLGGYLRLSRSCLAKGSPERHHKQLKISFSETALETTYQYPSESSVLEELGPEPEVPSAPNPPAAQPDDEEDEEELLLLQPELQGGLRTKALIVDESCRR
binding: binds

B5: catenin δ-1 (protein, UniProt O60716 1-968)
chain: MDDSEVESTASILASVKEQEAQFEKLTRALEEERRHVSAQLERVRVSPQDANPLMANGTLTRRHQNGRFVGDADLERQKFSDLKLNGPQDHSHLLYSTIPRMQEPGQIVETYTEEDPEGAMSVVSVETSDDGTTRRTETTVKKVVKTVTTRTVQPVAMGPDGLPVDASSVSNNYIQTLGRDFRKNGNGGPGPYVGQAGTATLPRNFHYPPDGYSRHYEDGYPGGSDNYGSLSRVTRIEERYRPSMEGYRAPSRQDVYGPQPQVRVGGSSVDLHRFHPEPYGLEDDQRSMGYDDLDYGMMSDYGTARRTGTPSDPRRRLRSYEDMIGEEVPSDQYYWAPLAQHERGSLASLDSLRKGGPPPPNWRQPELPEVIAMLGFRLDAVKSNAAAYLQHLCYRNDKVKTDVRKLKGIPVLVGLLDHPKKEVHLGACGALKNISFGRDQDNKIAIKNCDGVPALVRLLRKARDMDLTEVITGTLWNLSSHDSIKMEIVDHALHALTDEVIIPHSGWEREPNEDCKPRHIEWESVLTNTAGCLRNVSSERSEARRKLRECDGLVDALIFIVQAEIGQKDSDSKLVENCVCLLRNLSYQVHREIPQAERYQEAAPNVANNTGPHAASCFGAKKGKDEWFSRGKKPIEDPANDTVDFPKRTSPARGYELLFQPEVVRIYISLLKESKTPAILEASAGAIQNLCAGRWTYGRYIRSALRQEKALSAIADLLTNEHERVVKAASGALRNLAVDARNKELIGKHAIPNLVKNLPGGQQNSSWNFSEDTVISILNTINEVIAENLEAAKKLRETQGIEKLVLINKSGNRSEKEVRAAALVLQTIWGYKELRKPLEKEGWKKSDFQVNLNNASRSQSSHSYDDSTLPLIDRNQKSDKKPDREEIQMSNMGSNTKSLDNNYSTPNERGDHNRTLDRSGDLGDMEPLKGTTPLMQDEGQESLEEELDVLVLDDEGGQVSYPSMQKI
binding: binds
